No constants are given. Whether binding was seen depends on the method and setting. Binding seen in cells or lysates may run through a third protein. Binding can be weak; no strength is given. Where a sequence is shown, tags or fusion partners need not be part of it.

The target in test [1] is T1, FLAG-tagged EMC6, wild type (human) (human) (UniProt Q9BV81).
T1 sequence: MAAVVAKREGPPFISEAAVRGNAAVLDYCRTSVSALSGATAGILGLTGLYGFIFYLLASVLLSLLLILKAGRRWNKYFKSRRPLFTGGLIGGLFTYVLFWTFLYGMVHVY
In words: co-IP; HEK293T cells stably expressing α1β2γ2 GABAA receptors, transiently transfected with FLAG-tagged EMC3 variants, or with FLAG-tagged EMC5 and EMC6 variants; lysate (50 mM Tris pH 7.5, 150 mM NaCl, 2 mM DDM) on anti-FLAG M2 magnetic beads overnight at 4°C; blot for α1 and FLAG; band intensity of α1 over FLAG.

Test [2] addresses T2, FLAG-tagged EMC3, wild type (human) (human) (UniProt Q9P0I2).
T2 sequence: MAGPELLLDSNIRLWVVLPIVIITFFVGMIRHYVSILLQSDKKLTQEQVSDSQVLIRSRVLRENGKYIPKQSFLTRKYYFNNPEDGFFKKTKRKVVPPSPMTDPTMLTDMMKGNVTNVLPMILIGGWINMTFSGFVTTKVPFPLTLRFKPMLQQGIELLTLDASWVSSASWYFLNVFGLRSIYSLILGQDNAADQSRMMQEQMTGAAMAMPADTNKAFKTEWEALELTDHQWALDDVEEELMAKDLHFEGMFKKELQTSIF
Described as above.

For “human GABAA receptor α1 subunit (HEK293T cells stably expressing α1β2γ2)”, the binding entry in test [1] and in test [2] was “binds” in each case.

These data come from paper PMC9352529.
